According to paper PMC4010471:
These are yes or no findings as the source states them, for the method shown. Binding seen in cells or lysates may run through a third protein. Here binding means that the protein was enriched with, or labelled near, the bait; the list need not be complete.

Protein sequences, listed by entry. Tags and fused reporters are not part of them.
UniProt Q9UBL3: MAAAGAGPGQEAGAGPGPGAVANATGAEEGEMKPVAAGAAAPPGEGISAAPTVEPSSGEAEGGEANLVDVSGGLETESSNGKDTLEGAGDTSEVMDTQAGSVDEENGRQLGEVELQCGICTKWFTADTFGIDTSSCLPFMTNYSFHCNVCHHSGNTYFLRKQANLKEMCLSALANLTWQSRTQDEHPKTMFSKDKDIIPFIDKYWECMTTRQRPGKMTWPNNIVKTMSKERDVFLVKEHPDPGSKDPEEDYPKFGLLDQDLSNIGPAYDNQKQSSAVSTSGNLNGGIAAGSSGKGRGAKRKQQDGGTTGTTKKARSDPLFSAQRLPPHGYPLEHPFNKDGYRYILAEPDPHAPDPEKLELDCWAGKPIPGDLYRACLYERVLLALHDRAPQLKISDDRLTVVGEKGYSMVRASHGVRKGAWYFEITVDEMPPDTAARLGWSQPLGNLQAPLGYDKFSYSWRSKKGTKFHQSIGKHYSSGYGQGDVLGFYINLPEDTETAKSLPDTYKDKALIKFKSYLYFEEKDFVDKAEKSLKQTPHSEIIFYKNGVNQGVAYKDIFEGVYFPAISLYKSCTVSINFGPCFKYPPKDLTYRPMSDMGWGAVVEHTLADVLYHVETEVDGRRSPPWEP
UniProt Q6ZW49: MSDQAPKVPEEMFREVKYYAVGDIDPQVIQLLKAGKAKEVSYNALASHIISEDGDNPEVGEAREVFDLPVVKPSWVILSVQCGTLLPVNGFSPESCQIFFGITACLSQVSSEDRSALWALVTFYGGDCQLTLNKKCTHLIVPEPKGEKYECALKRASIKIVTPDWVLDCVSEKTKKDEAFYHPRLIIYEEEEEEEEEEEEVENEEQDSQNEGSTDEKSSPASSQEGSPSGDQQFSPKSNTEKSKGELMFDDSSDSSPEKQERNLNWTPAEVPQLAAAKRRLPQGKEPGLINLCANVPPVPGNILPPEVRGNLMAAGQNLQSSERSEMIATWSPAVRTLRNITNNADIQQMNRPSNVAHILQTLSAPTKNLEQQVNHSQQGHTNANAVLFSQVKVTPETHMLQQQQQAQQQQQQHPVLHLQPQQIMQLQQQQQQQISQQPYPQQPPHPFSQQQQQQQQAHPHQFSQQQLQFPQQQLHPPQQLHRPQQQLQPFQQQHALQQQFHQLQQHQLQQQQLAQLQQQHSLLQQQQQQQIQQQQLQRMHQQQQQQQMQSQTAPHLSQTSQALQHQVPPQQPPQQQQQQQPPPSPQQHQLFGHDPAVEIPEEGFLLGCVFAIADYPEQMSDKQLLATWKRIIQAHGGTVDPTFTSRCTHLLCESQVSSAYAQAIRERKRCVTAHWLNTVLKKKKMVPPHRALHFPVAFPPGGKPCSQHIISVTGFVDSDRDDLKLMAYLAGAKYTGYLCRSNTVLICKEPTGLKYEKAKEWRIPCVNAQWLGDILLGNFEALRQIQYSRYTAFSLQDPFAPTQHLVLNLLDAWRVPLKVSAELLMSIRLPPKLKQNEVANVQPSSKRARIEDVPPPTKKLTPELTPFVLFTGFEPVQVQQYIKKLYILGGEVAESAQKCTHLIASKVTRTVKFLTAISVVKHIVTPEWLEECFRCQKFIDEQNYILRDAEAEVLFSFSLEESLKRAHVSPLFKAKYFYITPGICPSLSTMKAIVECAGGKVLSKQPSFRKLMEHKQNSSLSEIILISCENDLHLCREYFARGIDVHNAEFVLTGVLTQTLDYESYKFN
UniProt Q15291: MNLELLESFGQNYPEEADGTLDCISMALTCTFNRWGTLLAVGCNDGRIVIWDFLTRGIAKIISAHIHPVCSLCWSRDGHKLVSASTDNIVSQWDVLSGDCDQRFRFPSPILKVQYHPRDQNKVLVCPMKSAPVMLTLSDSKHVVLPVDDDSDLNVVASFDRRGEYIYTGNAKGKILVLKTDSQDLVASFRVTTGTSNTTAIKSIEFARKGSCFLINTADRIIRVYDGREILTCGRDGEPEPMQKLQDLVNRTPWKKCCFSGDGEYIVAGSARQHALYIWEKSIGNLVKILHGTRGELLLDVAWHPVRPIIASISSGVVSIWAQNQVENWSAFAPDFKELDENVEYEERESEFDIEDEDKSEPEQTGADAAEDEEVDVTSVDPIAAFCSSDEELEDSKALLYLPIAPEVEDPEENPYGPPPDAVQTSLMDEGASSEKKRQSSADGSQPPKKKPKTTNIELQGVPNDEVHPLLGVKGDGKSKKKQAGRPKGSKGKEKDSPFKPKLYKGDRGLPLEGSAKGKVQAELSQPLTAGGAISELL

Target: Flag-HA-UTX (UniProt O15550)
Test: affinity purification with mass spectrometry; tandem affinity purification (anti-Flag M2 agarose, Flag peptide elution, then HA beads, HA peptide elution) from nuclear extracts of HEK293 cells stably expressing Flag-HA-JMJD3 or Flag-HA-UTX; buffer A with 20 mM Tris-HCl pH 8.0, 300 mM NaCl; 4 °C; co-purified proteins analysed by mass spectrometry

binding, binds:
ASH2L (from UniProt Q9UBL3 1-628)
PTIP (from UniProt Q6ZW49 1-1069)
RBBP5 (from UniProt Q15291 1-538)
